Measurements reported in PubChem BioAssay AID1224830 (NIAID, 2016)
The deposit covers about 18,000 reagents; shown is a part drawn at random. About 2,900 of them (16%) count as active. 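Calls are made per well; low scores hint the gene aids the LPS response, high scores that it dampens it.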 Repeated entries: four replicate wells of each siRNA pool.

Aim: 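Host factors that control LPS-induced TNF expression in human macrophages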 (primary screen)
Cell system: human THP-1 monocytic leukaemia cells, TNF dual-luciferase reporter clone, PMA-differentiated to macrophage-like cells
Reagent: siRNA pool against human genes, 50 nM
Time to read-out: LPS for 4 h, given about 3 days after siRNA transfection
Conditions: bacterial LPS (TLR4 ligand), 10 ng/ml
Measured: 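Ratio of firefly to renilla light, scaled to the plate median and expressed as a robust z-score per replicate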
Direction: TNF reporter robust z-score: higher = stronger TNF reporter response to LPS
Hit rule: 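a well is active when its z-score exceeds 2.8 or falls below -1.5; control wells carry no call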

Target gene | TNF reporter robust z-score | call
RBMY1F (RNA binding motif protein Y-linked family 1 member F) | 0.16 | inactive
RBMY1F (RNA binding motif protein Y-linked family 1 member F) | 0.06 | inactive
RBMY1F (RNA binding motif protein Y-linked family 1 member F) | 0.84 | inactive
RBMY1F (RNA binding motif protein Y-linked family 1 member F) | 1.27 | inactive
KEL (Kell metallo-endopeptidase (Kell blood group)) | 1.72 | inactive
KEL (Kell metallo-endopeptidase (Kell blood group)) | -0.33 | inactive
KEL (Kell metallo-endopeptidase (Kell blood group)) | -1.15 | inactive
KEL (Kell metallo-endopeptidase (Kell blood group)) | -0.3 | inactive
KYAT1 (kynurenine aminotransferase 1) | 1.71 | inactive
KYAT1 (kynurenine aminotransferase 1) | 2.04 | inactive
KYAT1 (kynurenine aminotransferase 1) | 0.56 | inactive
KYAT1 (kynurenine aminotransferase 1) | 3.01 | active
SLC25A52 | 0.52 | inactive
SLC25A52 | 0.99 | inactive
SLC25A52 | 0.31 | inactive
SLC25A52 | 1.1 | inactive
LY6H (lymphocyte antigen 6 family member H) | 1.16 | inactive
LY6H (lymphocyte antigen 6 family member H) | 0.84 | inactive
LY6H (lymphocyte antigen 6 family member H) | 1.19 | inactive
LY6H (lymphocyte antigen 6 family member H) | 0.66 | inactive
FADS2 (fatty acid desaturase 2) | 21.1 | active
FADS2 (fatty acid desaturase 2) | -0.2 | inactive
FADS2 (fatty acid desaturase 2) | -1.46 | inactive
FADS2 (fatty acid desaturase 2) | 4.38 | active
CCR4 (C-C motif chemokine receptor 4) | 0.09 | inactive
CCR4 (C-C motif chemokine receptor 4) | 0.74 | inactive
CCR4 (C-C motif chemokine receptor 4) | 0.83 | inactive
CCR4 (C-C motif chemokine receptor 4) | -0.76 | inactive

Hits (from the list above):
Target gene | TNF reporter robust z-score | call
KYAT1 (kynurenine aminotransferase 1) | 3.01 | active
FADS2 (fatty acid desaturase 2) | 21.1 | active
FADS2 (fatty acid desaturase 2) | 4.38 | active

The results go on.
Target gene | TNF reporter robust z-score | call
DIDO1 (death inducer-obliterator 1) | 0.58 | inactive
DIDO1 (death inducer-obliterator 1) | 1 | inactive
DIDO1 (death inducer-obliterator 1) | 0.14 | inactive
DIDO1 (death inducer-obliterator 1) | 0.13 | inactive
CDK12 (cyclin dependent kinase 12) | -0.44 | inactive
CDK12 (cyclin dependent kinase 12) | -0.97 | inactive
CDK12 (cyclin dependent kinase 12) | -0.79 | inactive
CDK12 (cyclin dependent kinase 12) | -0.93 | inactive
L1TD1 (LINE1 type transposase domain containing 1) | 1.29 | inactive
L1TD1 (LINE1 type transposase domain containing 1) | 0.92 | inactive
L1TD1 (LINE1 type transposase domain containing 1) | 0.19 | inactive
L1TD1 (LINE1 type transposase domain containing 1) | 0.88 | inactive
KIAA1755 | 1.1 | inactive
KIAA1755 | 1.51 | inactive
KIAA1755 | 0.52 | inactive
KIAA1755 | 0.31 | inactive
ZMYND19 (zinc finger MYND-type containing 19) | -0.48 | inactive
ZMYND19 (zinc finger MYND-type containing 19) | -0.81 | inactive
ZMYND19 (zinc finger MYND-type containing 19) | -0.15 | inactive
ZMYND19 (zinc finger MYND-type containing 19) | -0.33 | inactive
